{"source": "PubChem BioAssay AID2685", "about": "(National Center for Advancing Translational Sciences (NCATS), 2010)", "test": "qHTS Assay for Lipid Storage Modulators in Drosophila S3 Cells;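 on cell number change: cells counted by Cell Tracker Red CMTPX staining in the red channel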", "details": "BODIPY lipid droplet fluorescence, 18-24 h; for cell number change: measured here: cell count max response, cells fed with added oleic acid", "how_it_was_run": "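Drosophila S3 cells loaded with oleic acid (400 uM, as added) and compounds at several concentrations; lipid droplets imaged by 488-nm laser-scanning cytometry, 500–530 nm intensity and object ratio to cell channel. Percent activity normalized to 20 uM Triacsin C.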", "key": {"[1]": {"details": "measured here: lipid fluorescence (Fed channel) AC50, cells fed with added oleic acid"}, "[2]": {"details": "measured here: cell number channel AC50, cells fed with added oleic acid"}}, "note": "Some of the results follow. The main result of the screen is listed elsewhere. These columns were measured beside it and carry no call. The list favours compounds with an active or inconclusive main result. Potencies come from curve fits of mixed quality, noted in brackets."}
{"compound": "O=c1oc(-c2ccccc2F)nc2c1cnn2-c1ccccc1", "values": [{"measurement": "cell number change", "value": -25.6, "unit": "%"}, {"measurement": "AC50", "setting": "[1]", "value": "23.1 µM [falling, partial curve]"}]}
{"compound": "CC12Cc3ccc4ccccc4c3C=C1C[N+](C)(C)C2", "note": "(centres undefined)", "values": [{"measurement": "cell number change", "value": -46.8, "unit": "%"}, {"measurement": "AC50", "setting": "[2]", "value": "0.461 µM [falling, full curve]"}, {"measurement": "AC50", "setting": "[1]", "value": "18.4 µM [falling, partial curve]"}]}
{"compound": "Cc1cccc(N2CCN(C(=O)COc3ccc4c(c3)CCC4)CC2C)c1", "note": "(centres undefined)", "values": [{"measurement": "AC50", "setting": "[1]", "value": "29.1 µM [falling, partial curve, poor fit]"}]}
{"compound": "COc1ccc(CN(C)Cc2c(O)ccc3ccccc23)cc1", "values": [{"measurement": "cell number change", "value": -23.8, "unit": "%"}, {"measurement": "AC50", "setting": "[1]", "value": "29.1 µM [rising, partial curve]"}]}
{"compound": "Nc1nonc1C(=O)NCCNC(=O)c1ccc(Cl)cc1", "values": [{"measurement": "cell number change", "value": 11.3, "unit": "%"}, {"measurement": "AC50", "setting": "[1]", "value": "29.1 µM [rising, single point]"}]}
{"compound": "O=S(=O)(c1ccccc1)N1CCSC1c1ccco1", "note": "(centres undefined)", "values": [{"measurement": "cell number change", "value": -35.6, "unit": "%"}, {"measurement": "AC50", "setting": "[2]", "value": "0.0517 µM [falling, full curve]"}]}
{"compound": "O=S1(=O)CCN(OCc2ccc(F)cc2Cl)CC1", "values": [{"measurement": "cell number change", "value": 16.4, "unit": "%"}, {"measurement": "AC50", "setting": "[2]", "value": "1.84 µM [falling, partial curve]"}, {"measurement": "AC50", "setting": "[1]", "value": "0.651 µM [falling, partial curve, poor fit]"}]}
{"compound": "CN(Cc1c(F)cccc1Cl)c1ccc(S(=O)(=O)N2CCOCC2)cn1", "values": [{"measurement": "cell number change", "value": -37.5, "unit": "%"}, {"measurement": "AC50", "setting": "[2]", "value": "4.11 µM [falling, partial curve]"}, {"measurement": "AC50", "setting": "[1]", "value": "8.2 µM [falling, partial curve, poor fit]"}]}
{"compound": "Cc1cc(Cl)ccc1NC(=S)NCc1ccc(S(N)(=O)=O)cc1", "values": [{"measurement": "cell number change", "value": -18.7, "unit": "%"}]}
{"compound": "Cc1ccc(S(=O)(=O)N2CCCCC2)cc1C(=O)NCCC1=CCCCC1", "values": [{"measurement": "AC50", "setting": "[1]", "value": "10.3 µM [falling, partial curve]"}]}
{"compound": "Cn1nc(C(=O)Nc2cccnc2)c2ccccc2c1=O", "values": [{"measurement": "cell number change", "value": 9.26, "unit": "%"}, {"measurement": "AC50", "setting": "[1]", "value": "4.11 µM [rising, full curve]"}]}
{"compound": "CCOc1ccc(Br)cc1C(=S)N1CCCC1", "values": [{"measurement": "cell number change", "value": -11.7, "unit": "%"}]}
{"compound": "COc1ccc(C(NC(=O)CN2C(=O)NC3(CCc4ccccc43)C2=O)c2ccc(OC)cc2)cc1", "note": "(centres undefined)", "values": [{"measurement": "cell number change", "value": -66.1, "unit": "%"}, {"measurement": "AC50", "setting": "[2]", "value": "5.17 µM [falling, single point]"}]}
{"compound": "O=C(c1cccc(C(=O)N2CCN(c3ccccc3F)CC2)c1)N1CCN(c2ccccc2F)CC1", "values": [{"measurement": "cell number change", "value": -4.77, "unit": "%"}]}
{"compound": "CCOC(=O)C1CCN(c2cc(C)nc3ccc(OC)cc23)CC1", "values": [{"measurement": "cell number change", "value": -1.48, "unit": "%"}, {"measurement": "AC50", "setting": "[2]", "value": "6.51 µM [rising, single point]"}, {"measurement": "AC50", "setting": "[1]", "value": "6.51 µM [rising, single point]"}]}
{"compound": "COc1ccc(-c2noc(N3CCC(C(=O)Nc4cccc(OC)c4)CC3)n2)cc1", "values": [{"measurement": "cell number change", "value": 19.3, "unit": "%"}, {"measurement": "AC50", "setting": "[1]", "value": "29.1 µM [falling, single point]"}]}
{"compound": "O=C(CSc1nc2ccccc2c(=O)n1-c1ccccc1)NCC1CCCO1", "note": "(centres undefined)", "values": [{"measurement": "cell number change", "value": -1.35, "unit": "%"}, {"measurement": "AC50", "setting": "[1]", "value": "29.1 µM [falling, single point]"}]}
{"compound": "Cc1ccc(C(=O)c2c3ccc(C(F)(F)F)cc3nn2CCC(N)=O)cc1", "values": [{"measurement": "cell number change", "value": -6.01, "unit": "%"}, {"measurement": "AC50", "setting": "[1]", "value": "0.517 µM [rising, full curve, poor fit]"}]}
{"compound": "CC1CC(CC(=O)NC(=S)Nc2ccccc2Cl)C(=O)O1", "note": "(centres undefined)", "values": [{"measurement": "cell number change", "value": 9.38, "unit": "%"}, {"measurement": "AC50", "setting": "[1]", "value": "0.82 µM [falling, single point]"}]}
{"compound": "CN(C)CCC(O)(c1ccccc1)c1ccccc1", "values": [{"measurement": "cell number change", "value": -113, "unit": "%"}, {"measurement": "AC50", "setting": "[2]", "value": "29.1 µM [falling, partial curve, poor fit]"}, {"measurement": "AC50", "setting": "[1]", "value": "0.326 µM [falling, partial curve, poor fit]"}]}
{"compound": "COCCCN1C(=O)N(c2ccccc2)C(=O)C1CC(=O)Nc1ccccc1", "note": "(centres undefined)", "values": [{"measurement": "cell number change", "value": 18, "unit": "%"}]}
{"compound": "O=C(C1CC(c2ccccc2O)=NO1)N1CCc2ccccc2C1", "note": "(centres undefined)", "values": [{"measurement": "cell number change", "value": 2.71, "unit": "%"}]}
{"compound": "CC(OC(=O)c1ccc(F)c(S(=O)(=O)N2CCOCC2)c1)C(=O)NCC1CCCCC1", "note": "(centres undefined)", "values": [{"measurement": "cell number change", "value": 13.3, "unit": "%"}, {"measurement": "AC50", "setting": "[1]", "value": "4.11 µM [falling, single point]"}]}
{"compound": "Cc1nc2ccccc2nc(=O)c1NNc1ccccc1", "values": [{"measurement": "cell number change", "value": 0.794, "unit": "%"}]}
{"compound": "Oc1ccc2ccccc2c1N=Nc1ccccn1", "values": [{"measurement": "cell number change", "value": -98.7, "unit": "%"}, {"measurement": "AC50", "setting": "[2]", "value": "20.6 µM [falling, partial curve]"}, {"measurement": "AC50", "setting": "[1]", "value": "18.4 µM [falling, single point]"}]}
{"compound": "CC1CC(C)CN(C(=O)c2ccc(S(=O)(=O)N3CCCC3)cc2)C1", "note": "(centres undefined)", "values": [{"measurement": "cell number change", "value": 32.2, "unit": "%"}, {"measurement": "AC50", "setting": "[2]", "value": "35.5 µM [rising, single point]"}]}
{"compound": "O=C(CCN1C(=O)C2CCCCC2C1=O)N1CCN(S(=O)(=O)c2c(F)cccc2F)CC1", "note": "(centres undefined)", "values": [{"measurement": "AC50", "setting": "[2]", "value": "6.51 µM [falling, single point]"}]}
{"compound": "COc1ccc(CSCC(=O)NN=C2CCN(C)CC2)cc1", "values": [{"measurement": "cell number change", "value": 14.3, "unit": "%"}, {"measurement": "AC50", "setting": "[2]", "value": "0.0731 µM [falling, partial curve, poor fit]"}]}
{"compound": "C=CC(=O)Nc1ccc(Br)cc1", "values": [{"measurement": "cell number change", "value": 31.2, "unit": "%"}, {"measurement": "AC50", "setting": "[2]", "value": "7.31 µM [rising, partial curve]"}, {"measurement": "AC50", "setting": "[1]", "value": "6.51 µM [rising, single point]"}]}
{"compound": "Cc1cc(C)cc(NC(=O)c2ccccc2NC(=O)CCC(=O)O)c1", "values": [{"measurement": "cell number change", "value": -51.2, "unit": "%"}, {"measurement": "AC50", "setting": "[2]", "value": "29.1 µM [falling, single point]"}, {"measurement": "AC50", "setting": "[1]", "value": "3.26 µM [rising, single point]"}]}
